Measured data: PubChem BioAssay AID1259254 (NCATS, 2017)
The whole screen tested about 59,000 reagents; below is a part drawn at random. In the full data, about 1,550 (2.6%) got an active call. 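G2 share is only a proxy for re-replication; each gene was hit by three separate siRNAs, and active genes were retested.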 Entries without a mark were called inactive. The numbers tell different reagents against one gene apart. Further read-outs or replicates are left out here. Not stated in the record: the amount of reagent.

Purpose: 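Gene knock-downs that lead to re-replication, shown by excess G2 DNA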 (primary screen)
Cells: human HCT116 colorectal cancer cells
Knock-down reagent: single siRNA against human genes
Time to read-out: 3 days
Detection: 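Imaged Hoechst DNA stain sorts each cell into a cycle phase by DNA amount; per plate, G2 fraction set to 0% for non-targeting and 100% for GMNN siRNA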
Scale: G2 robust z-score and G2 cells, % of GMNN control: higher = more G2 cells, more excess DNA replication
Hit rule: 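Active siRNAs have a G2 robust z of 5 or more median absolute deviations over the median, which in these data means about 38% or higher of GMNN control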

gene	reagent no.	G2 robust z-score	G2 cells, % of GMNN control
GEMIN7	1	0.835	8.84
GEMIN7	2	-0.539	-0.826
GEMIN7	3	-0.545	-0.87
CXorf65	1	-0.31	0.788
CXorf65	2	-0.164	1.82
CXorf65	3	-0.388	0.241
PPCS	1	-0.648	-1.59
PPCS	2	1.27	11.9
PPCS	3	0.366	5.54
IPO7	1	3.46	27.3
IPO7	2	0.301	5.09
IPO7	3	2.49	20.5

Look-ups from the entries so far.
GEMIN7 #3, G2 robust z-score → -0.545
Under “G2 robust z-score”, CXorf65 #2 shows -0.164

Additional entries:
gene	reagent no.	G2 robust z-score	G2 cells, % of GMNN control
ABHD3	1	3.83	29.9
ABHD3	2	1.66	14.7
ABHD3	3	-0.623	-1.42
OR3A1	1	-0.2	1.56
OR3A1	2	0.746	8.22
OR3A1	3	0.223	4.54
ASGR1	1	-0.421	0.00612
ASGR1	2	-1.34	-6.46
ASGR1	3	-1.23	-5.69
ABCA7	1	-0.206	1.52
ABCA7	2	1.37	12.6
ABCA7	3	-0.0833	2.38
DNAAF4	1	-0.387	0.244
DNAAF4	2	0.78	8.45
DNAAF4	3	0.235	4.62
FOXA3	1	1.05	10.4
FOXA3	2	-0.972	-3.87
FOXA3	3	-1.14	-5.03
